Earlier results as cited in US6835722B1, “Pharmaceutical compositions and preparations for treatment of metabolic bone disease” (Yuyu Industrial Co., Ltd., priority 1999, dated 2004).

Test system: post-menopausal women
Conditions: cited from earlier work

In the case of `NCCCC(O)(P(=O)(O)O)P(=O)(O)O` [alendronate, 4-amino-hydroxybutylidine-1,1-bisphosphonate], the “increase of mineral density of bones of lower limbs” value (10 mg/day for 3 years) is given as 7.2%, the “increase of mineral density of spinal bone” value (10 mg/day for 3 years) is given as 8.2% and the “increase in bone density” value (clinical studies) is given as 2-3%.
